Source: PubChem BioAssay AID288 (DTP/NCI, 2004)
The list shows only some results of the screen, not a fair sample: it is rich in T/C values a quarter to a half above the control, in often repeated tests (any T/C) and in doses without a T/C. Other doses and runs of a compound stand elsewhere. T/C is the treated group as % of the vehicle group. Schedules are NCI's codes, taken here to give the interval after Q, in days (D) or hours (H), and the number of doses after X. Some entries give survivors of the animals treated and no T/C: the source files T/C as zero there, which appears to mark a toxic dose or a test without result, not a measured value. Some doses without a T/C left all or most animals alive at the check, yet need not have been tolerated: survival well below the control is almost never listed, so the zero probably covers shortened survival too. Survivors were counted at the toxicity check, usually on the fifth day, unless a day is given; later deaths do not show. For survival time, this PubChem deposit counts one and a half times the control or more as active, and values a quarter to a half above the control carry no call in these data; other NCI protocols may use other cut-offs. Some T/C values carry the count of animals alive at the toxicity check (mostly the fifth day); where none is given, no animal had died by that day. Some entries hold several experiments; their values stand side by side, smallest first.

System: BDF1 mice, M5076 sarcoma s.c., survival/tumor T/C
Experiment: NCI In Vivo Anticancer Drug Screen. Data for tumor model Sarcoma M5076 (subcutaneous) in B6D2F1 (BDF1) mice
Procedure: The antitumor activity of compounds was measured in mice bearing transplantable tumors. Survival or tumor size were measured and the results are expressed as the measurement made in the treated group (T) divided by the measurement made in the vehicle treated control group (C). The tumor model used in this assay is Sarcoma M5076 (subcutaneous) in B6D2F1 (BDF1) mice

[1] = T/C endpoint: median survival time, dose: 256.0 mg/kg/injection, schedule: Q01DX009 (ip), vehicle: saline with Tween-80, higher T/C = longer survival

[N-]=[N+]=CC(=O)CCC(N)C(=O)O (stereo not drawn) was tested. Which survivor count (T/C endpoint: median survival time, dose: 6.48 mg/kg/injection, schedule: Q04DX004 (ip), vehicle: saline, higher T/C = longer survival) did it give?
Its survivor count is 10 of 10.

What about the survivor count (T/C endpoint: median survival time, dose: 10.8 mg/kg/injection, schedule: Q04DX004 (ip), vehicle: saline, higher T/C = longer survival) of the same compound?
The survivor count was 6 of 8.

And the survivor count (T/C endpoint: median survival time, dose: 16.0 mg/kg/injection, schedule: Q04DX005 (ip), vehicle: saline, higher T/C = longer survival)?
Its survivor count is 0 of 10 on day 55.

Which results are given for C[C@@H](CN1CC(=O)NC(=O)C1)N1CC(=O)NC(=O)C1?
T/C [1]: 134 % of control; survivor count [1]: 8 of 10 on day 9; survivor count (T/C endpoint: median survival time, dose: 512.0 mg/kg/injection, schedule: Q01DX009 (ip), vehicle: saline with Tween-80, higher T/C = longer survival): 1 of 10 on day 9; survivor count (T/C endpoint: median tumor weight (est.), dose: 256.0 mg/kg/injection, schedule: Q01DX009 (ip), vehicle: saline with Tween-80, higher T/C = larger tumour): 3 of 10 on day 20; survivor count (T/C endpoint: median tumor weight (est.), dose: 512.0 mg/kg/injection, schedule: Q01DX009 (ip), vehicle: saline with Tween-80, higher T/C = larger tumour): 0 of 10 on day 20

For COCC(O)Cn1ccnc1[N+](=O)[O-] (stereo not drawn), which T/C (T/C endpoint: median survival time, dose: 446.2 mg/kg/injection, schedule: Q07DX002 (ip), vehicle: saline, higher T/C = longer survival) is on record?
The T/C was 129 % of control [8 of 9 alive].

What about the T/C (T/C endpoint: median survival time, dose: 600.0 mg/kg/injection, schedule: Q01DX001 (ip), vehicle: saline, evaluated on day 17, higher T/C = longer survival) of the same compound?
Its T/C is 95 % of control.

And the T/C (T/C endpoint: median survival time, dose: 600.0 mg/kg/injection, schedule: Q01DX001 (ip), vehicle: saline, evaluated on day 48, higher T/C = longer survival)?
Its T/C is 93 % of control.

And the T/C (T/C endpoint: median survival time, dose: 600.0 mg/kg/injection, schedule: Q01DX001 (ip), vehicle: saline, evaluated on day 61, higher T/C = longer survival)?
Its T/C is 95 % of control [9 of 10 alive on day 61].

What about the T/C (T/C endpoint: median survival time, dose: 1000.0 mg/kg/injection, schedule: Q01DX001 (ip), vehicle: saline, evaluated on day 17, higher T/C = longer survival) of the same compound?
Its T/C is 97 % of control.

And the T/C (T/C endpoint: median survival time, dose: 1000.0 mg/kg/injection, schedule: Q01DX001 (ip), vehicle: saline, evaluated on day 38, higher T/C = longer survival)?
Its T/C is 101 % of control [2 of 5 alive].

What about the T/C (T/C endpoint: median survival time, dose: 1000.0 mg/kg/injection, schedule: Q01DX001 (ip), vehicle: saline, evaluated on day 48, higher T/C = longer survival) of the same compound?
The T/C was 98 % of control.

And the T/C (T/C endpoint: median survival time, dose: 1000.0 mg/kg/injection, schedule: Q01DX001 (ip), vehicle: saline, evaluated on day 61, higher T/C = longer survival)?
The T/C was 96 % of control.

For COc1ccc(Cl)[n+]([O-])n1, which survivor count (T/C endpoint: median survival time, dose: 200.0 mg/kg/injection, schedule: Q04DX003 (ip), vehicle: Klucel (hydroxypropylcellulose) (HPC), higher T/C = longer survival) is on record?
Its survivor count is 0 of 10 on day 63.

And the survivor count (T/C endpoint: median survival time, dose: 400.0 mg/kg/injection, schedule: Q04DX003 (ip), vehicle: Klucel (hydroxypropylcellulose) (HPC), higher T/C = longer survival)?
The survivor count was 0 of 10 on day 63.

For CO[C@H](C(=O)[C@@H](O)[C@@H](C)O)[C@@H]1Cc2cc3cc(OC4CC(OC5CC(O)C(O)C(C)O5)C(O)C(C)O4)c(C)c(O)c3c(O)c2C(=O)[C@H]1OC1CC(OC2CC(OC3CC(C)(O)C(O)C(C)O3)C(O)C(C)O2)C(O)C(C)O1 (stereo partly drawn), which T/C (T/C endpoint: mean tumor weight, dose: 2.5 micrograms/kg/injection, schedule: Q02DX011 (ip), vehicle: water, evaluated on day 22, higher T/C = larger tumour) is on record?
The T/C was 143 % of control.

What about the T/C (T/C endpoint: median tumor weight (est.), dose: 0.03 mg/kg/injection, schedule: Q02DX011 (ip), vehicle: water, evaluated on day 22, higher T/C = larger tumour) of the same compound?
Its T/C is 128 % of control.

With CC1CCC(NC(=O)N(CCCl)N=O)CC1 (stereo not drawn) as the compound, how does the T/C (T/C endpoint: median survival time, dose: 9.0 mg/kg/injection, schedule: Q01DX003 (ip), vehicle: saline with Tween-80, higher T/C = longer survival) read?
The T/C was 131 % of control.

What about the survivor count (T/C endpoint: median survival time, dose: 10.0 mg/kg/injection, schedule: Q02DX011 (ip), vehicle: Klucel (hydroxypropylcellulose) (HPC), higher T/C = longer survival) of the same compound?
Its survivor count is 4 of 9.

And the T/C (T/C endpoint: median survival time, dose: 14.0 mg/kg/injection, schedule: Q01DX003 (ip), vehicle: saline with Tween-80, higher T/C = longer survival)?
Its T/C is 133 % of control.

What about the T/C (T/C endpoint: median survival time, dose: 18.0 mg/kg/injection, schedule: Q01DX001 (ip), vehicle: saline with Tween-80, higher T/C = longer survival) of the same compound?
Its T/C is 131 % of control.

What about the survivor count (T/C endpoint: median survival time, dose: 20.0 mg/kg/injection, schedule: Q04DX005 (ip), vehicle: other, higher T/C = longer survival) of the same compound?
Its survivor count is 0 of 10 on day 77.

And the T/C (T/C endpoint: median survival time, dose: 27.0 mg/kg/injection, schedule: Q01DX001 (ip), vehicle: saline with Tween-80, higher T/C = longer survival)?
Its T/C is 143 % of control.

What about the T/C (T/C endpoint: median survival time, dose: 30.0 mg/kg/injection, schedule: Q01DX001 (ip), vehicle: saline with Tween-80, higher T/C = longer survival) of the same compound?
The T/C was 129 % of control.

And the T/C (T/C endpoint: median survival time, dose: 30.0 mg/kg/injection, schedule: Q01DX001 (oral), vehicle: saline with Tween-80, higher T/C = longer survival)?
The T/C was 145 % of control.

And the T/C (T/C endpoint: median survival time, dose: 40.0 mg/kg/injection, schedule: Q01DX001 (ip), vehicle: saline with Tween-80, evaluated on day 65, higher T/C = longer survival)?
The T/C was 143 % of control.

And the T/C (T/C endpoint: median survival time, dose: 40.0 mg/kg/injection, schedule: Q01DX001 (ip), vehicle: saline with Tween-80, evaluated on day 96, higher T/C = longer survival)?
Its T/C is 155, 180, 227 % of control.

What about the T/C (T/C endpoint: median survival time, dose: 60.0 mg/kg/injection, schedule: Q01DX001 (ip), vehicle: saline with Tween-80, evaluated on day 65, higher T/C = longer survival) of the same compound?
Its T/C is 145 % of control.

And the T/C (T/C endpoint: median survival time, dose: 60.0 mg/kg/injection, schedule: Q01DX001 (ip), vehicle: saline with Tween-80, evaluated on day 96, higher T/C = longer survival)?
Its T/C is 176 and 226 % of control [9 of 10 alive on day 96].

What about the survivor count (T/C endpoint: median survival time, dose: 60.0 mg/kg/injection, schedule: Q01DX001 (ip), vehicle: saline with Tween-80, higher T/C = longer survival) of the same compound?
The survivor count was 3 of 10 on day 96.
